Test results: patent US20240368233A1 (University of Washington, published 2024)
These are yes or no findings as the source states them, for the method shown. Some binding calls cover weakened binding; strength is not graded here.

What follows are binders tested against DFA-GFP (assay: SEC of mixed components; trimer listed in Table 6).

Binder | binding
LHD274 chainB (designed binder) NTHFIVVHGSEEARQRAEEYVRRISKKEGTEVRFEKKDGLLSIEVKNLSEERQREIQEYLQRVQK | binds
LHD101 chainB (designed binder, also called LHD101B) GRQEKVLKSIEETVRKMGVTMETHRSGNEVKVVIKGLHESQQEQLLEDVLRTAEKQGVRVRIRFKGDTVTIVVRE | binds
274B53 (designed binder, also called LHD274B DHR53 stop) NTHFIVVHGSEDAAQLAEELVREISKKEGTEVRFEKKDGLLSIEVKNLSEERQREIQKALQLVQDVANAERVVRERPGSNLAKKALEIILRAAEELAKLDLKASLKAAVRAAEKVVREQPGSNLAKKALEIILRAAEELAKLPDPEALKEAVKAAEKVVREQPGSELAKKALEIIERAAEELKKSPDPEAQKEAKKAEQKVREESGSHHWGSGLNDIFEAQKIEWHEGSHHHHHH | binds
